In US12618070B2, “Increasing Atoh1 life to drive sensorineural hair cell differentiation” (Massachusetts Eye and Ear Infirmary, priority 2014, dated 2026):

Tested on: FLAG-HA-Atoh1 293T cells
Experiment: Cycloheximide chase, half-life of Atoh1 by Western blotting and densitometry
Assay type: cell-based
Method: FIGS. 1A-B. Atoh1 is a short-lived protein. (A) FLAG-HA-Atoh1 293T cells were treated with cycloheximide (100 ug/ml) and harvested at the indicated times. Lysates were processed for Western blotting with FLAG antibody (Atoh1) or β-actin antibody (loading control). Labels indicate the time of chase. (B) Protein half-lives based on densitometry. The ratio of Atoh1 to β-actin was plotted after normalizing to the initial ratio set to 100. Error bars indicate SEM.
HEK cells were transfected with either FLAG-Atoh1 (wild-type), or indicated mutant FLAG-Atoh1 plasmids (1 μg/ml) using Lipofectamine 2000 (3 μl per 1 μg of cDNA, Invitrogen). Forty-eight hours after transfection, 100 μg/ml cycloheximide (Sigma) was added to block protein synthesis. Cells were harvested at 0, 30, 60, 120, and 240 minutes. Equal amounts of protein from each treatment were taken for Western blotting. Protein bands were quantified by densitometry. The half-lives of indicated proteins were calculated using GraphPad Prism 6 software and a one-phase exponential-decay model.
To determine the half-life of Atoh1, we used cycloheximide to prevent new protein synthesis and followed the time course of disappearance of previously synthesized Atoh1 by Western blotting during a chase period. We transfected 293T cells with FLAG-HA-Atoh1 and treated with cycloheximide at 48 hours after transfection.

B1: Atoh1: wild-type Atoh1 protein, FLAG- or FLAG-HA-tagged, expressed in HEK/293T cells (protein)
chain: MSRLLHAEEWAEVKELGDHHRQPQPHHLPQPPPPPQPPATLQAREHPVYPPELSLLDSTDPRAWLAPTLQGICTARAAQYLLHSPELGASEAAAPRDEVDGRGELVRRSSGGASSSKSPGPVKVREQLCKLKGGVVVDELGCSRQRAPSSKQVNGVQKQRRLAANARERRRMHGLNHAFDQLRNVIPSFNNDKKLSKYETLQMAQIYINALSELLQTPSGGEQPPPPPASCKSDHHHLRTAASYEGGAGNATAAGAQQASGGSQRPTPPGSCRTRFSAPASAGGYSVQLDALHFSTFEDSALTAMMAQKNLSPSLPGSILQPVQEENSKTSPRSHRSDGEFSPHSHYSDSDEAS
modifications: left off: large carriers
notes: wild-type Atoh1 protein, FLAG- or FLAG-HA-tagged, expressed in HEK/293T cells
time by which pre-existing Atoh1 was completely degraded (after inhibition of new protein synthesis with cycloheximide): ≤ 2 h | half-life of Atoh1 (cycloheximide 100 ug/ml, densitometry in three experiments): 35.31 min
